Measured data: PubChem BioAssay AID743121 (NCATS, 2013)

Test: 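Genes whose silencing strengthens cell killing by camptothecin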 (primary screen)
Cell system: MDA-MB-231 cells, a human breast cancer line
Reagents: single siRNA against human genes, 20 nM siRNA (0.8 pmol per well)
Timing: 120 h (drug added 48 h after transfection, read 72 h later)
Treatment: camptothecin 20 nM (about EC30) for 72 h; vehicle 0.1% DMSO in parallel plates
Read-out: 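Cell viability by ATP luminescence (CellTiter-Glo) as % of non-targeting siRNA wells, and the log2 ratio of viability without drug over viability with camptothecin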
Scale: log2 vehicle/camptothecin viability: higher = stronger sensitisation to camptothecin
Active means: 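Each gene scored by redundant siRNA activity (RSA) over its individual siRNA ratios; a gene is called active at p < 0.001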
In all, the deposit lists about 26,000 reagents; this is a part drawn at random. 167 of all reagents (0.63%) were called active. 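Calls are per gene from RSA p-values that are not deposited; an individual active-marked siRNA can sensitise only weakly.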 The numbers tell different reagents against one gene apart. Not all columns of the deposit are shown. Reagent sequences are not shown.

For CCL14 (C-C motif chemokine ligand 14) #1, what was measured?
log2 vehicle/camptothecin viability: 1.55; outcome: inactive

For CCL14 (C-C motif chemokine ligand 14) #2, what does the deposit list?
log2 vehicle/camptothecin viability: 0.0271; outcome: inactive

With CCL14 (C-C motif chemokine ligand 14) #3, what was measured?
log2 vehicle/camptothecin viability: -0.47; outcome: inactive

For CCL14 (C-C motif chemokine ligand 14) #4, how do the results read?
log2 vehicle/camptothecin viability: -0.0133; outcome: inactive

Which result is listed for PLEK (pleckstrin) #1?
log2 vehicle/camptothecin viability: -0.656; outcome: inactive

What is on record for PLEK (pleckstrin) #2?
log2 vehicle/camptothecin viability: 0.716; outcome: inactive

How did the screen score PLEK (pleckstrin) #3?
log2 vehicle/camptothecin viability: -0.0651; outcome: inactive

With TNN (tenascin N) #1, how do the results read?
log2 vehicle/camptothecin viability: -0.35; outcome: inactive

For TNN (tenascin N) #2, what was measured?
log2 vehicle/camptothecin viability: -0.0604; outcome: inactive

For TNN (tenascin N) #3, what was measured?
log2 vehicle/camptothecin viability: 0.0131; outcome: inactive

For TNN (tenascin N) #4, how do the results read?
log2 vehicle/camptothecin viability: 0.0976; outcome: inactive

For CA5A (carbonic anhydrase 5A) #1, how do the results read?
log2 vehicle/camptothecin viability: -0.21; outcome: inactive

With CA5A (carbonic anhydrase 5A) #2, how do the results read?
log2 vehicle/camptothecin viability: 0.0611; outcome: inactive

For CA5A (carbonic anhydrase 5A) #3, what was measured?
log2 vehicle/camptothecin viability: -0.177; outcome: inactive

How did the screen score CA5A (carbonic anhydrase 5A) #4?
log2 vehicle/camptothecin viability: -0.355; outcome: inactive

4 of these entries, reformatted:
gene knocked down,reagent,log2 vehicle/camptothecin viability,outcome
PLEK (pleckstrin),2,0.716,inactive
PLEK (pleckstrin),3,-0.0651,inactive
TNN (tenascin N),1,-0.35,inactive
TNN (tenascin N),2,-0.0604,inactive

The list goes on:
With NR2F2 (nuclear receptor subfamily 2 group F member 2) #1, what does the deposit list?
log2 vehicle/camptothecin viability: 0.163; outcome: inactive

What did the screen give for NR2F2 (nuclear receptor subfamily 2 group F member 2) #2?
log2 vehicle/camptothecin viability: -0.287; outcome: inactive

With NR2F2 (nuclear receptor subfamily 2 group F member 2) #3, what was measured?
log2 vehicle/camptothecin viability: -0.289; outcome: inactive

For NR2F2 (nuclear receptor subfamily 2 group F member 2) #4, how do the results read?
log2 vehicle/camptothecin viability: -0.0862; outcome: inactive

What did the screen give for PRSS2 (serine protease 2) #1?
log2 vehicle/camptothecin viability: -0.2; outcome: inactive

With PRSS2 (serine protease 2) #2, what does the deposit list?
log2 vehicle/camptothecin viability: 0.504; outcome: inactive

How did the screen score GABRE (gamma-aminobutyric acid type A receptor subunit epsilon) #1?
log2 vehicle/camptothecin viability: -0.31; outcome: inactive

With GABRE (gamma-aminobutyric acid type A receptor subunit epsilon) #2, what was measured?
log2 vehicle/camptothecin viability: -0.449; outcome: inactive

For GABRE (gamma-aminobutyric acid type A receptor subunit epsilon) #3, what was measured?
log2 vehicle/camptothecin viability: -0.149; outcome: inactive

For GABRE (gamma-aminobutyric acid type A receptor subunit epsilon) #4, how do the results read?
log2 vehicle/camptothecin viability: -0.516; outcome: inactive

What is on record for PPEF1 (protein phosphatase with EF-hand domain 1) #1?
log2 vehicle/camptothecin viability: 0.47; outcome: inactive

What did the screen give for PPEF1 (protein phosphatase with EF-hand domain 1) #2?
log2 vehicle/camptothecin viability: 1; outcome: inactive

For PPEF1 (protein phosphatase with EF-hand domain 1) #3, how do the results read?
log2 vehicle/camptothecin viability: -0.258; outcome: inactive

For PPEF1 (protein phosphatase with EF-hand domain 1) #4, how do the results read?
log2 vehicle/camptothecin viability: -0.25; outcome: inactive

For KIF3A (kinesin family member 3A) #1, what does the deposit list?
log2 vehicle/camptothecin viability: -0.137; outcome: inactive

How did the screen score KIF3A (kinesin family member 3A) #2?
log2 vehicle/camptothecin viability: -0.472; outcome: inactive

With KIF3A (kinesin family member 3A) #3, what does the deposit list?
log2 vehicle/camptothecin viability: 0.238; outcome: inactive

What did the screen give for KIF3A (kinesin family member 3A) #4?
log2 vehicle/camptothecin viability: -0.0643; outcome: inactive

What did the screen give for PGR (progesterone receptor) #1?
log2 vehicle/camptothecin viability: -0.561; outcome: inactive

Which result is listed for PGR (progesterone receptor) #2?
log2 vehicle/camptothecin viability: -0.308; outcome: inactive

What is on record for PGR (progesterone receptor) #3?
log2 vehicle/camptothecin viability: -0.42; outcome: inactive
